Results from patent US20260275319A1, “ARCHAEAL PEPTIDE RECOMBINASE – A NOVEL PEPTIDE LIGATING ENZYME” (MAX-PLANCK-GESELLSCHAFT ZUR FÖRDERUNG DER WISSENSCHAFTEN …, priority 2019, published 2026).

Chains of the proteins cited; added tags and fusions are not shown. Lines headed by an entry give the natural chain unless they say otherwise; changes in a name come on top.
UniProt Q58261: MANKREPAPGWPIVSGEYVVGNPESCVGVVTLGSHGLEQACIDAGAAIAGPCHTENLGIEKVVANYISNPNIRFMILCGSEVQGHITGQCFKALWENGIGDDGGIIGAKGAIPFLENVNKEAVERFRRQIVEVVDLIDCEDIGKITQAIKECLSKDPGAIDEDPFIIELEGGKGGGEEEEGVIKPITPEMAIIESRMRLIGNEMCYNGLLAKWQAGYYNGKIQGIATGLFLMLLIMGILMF

Columns and labels:
[1] = biological target: T1, M. jannaschii MtrA^Δ194-245 (Methanocaldococcus jannaschii) (UniProt Q58261); experiment: size exclusion chromatography, 1:1 molar mixture; no shifted peak
T1 sequence: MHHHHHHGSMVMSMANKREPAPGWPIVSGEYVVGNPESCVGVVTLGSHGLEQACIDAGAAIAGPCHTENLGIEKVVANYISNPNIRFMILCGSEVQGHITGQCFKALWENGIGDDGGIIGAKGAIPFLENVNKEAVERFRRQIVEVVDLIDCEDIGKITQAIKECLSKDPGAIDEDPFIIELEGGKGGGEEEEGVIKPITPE

[2] = biological target: T1, M. jannaschii MtrA^Δ194-245 (Methanocaldococcus jannaschii); experiment: size exclusion chromatography, 1:1 molar mixture of 200 µM proteins; no shifted peak

- binding [1]: binds
- binding [2]: binds
Substance: M. jannaschii Adriase S1A without OB, with C-terminal His-tag (enzyme)

These are yes or no findings as the source states them, for the method shown. Binding calls can cover weak binding; strength is not graded here.
